Laboratory results reported in PubChem BioAssay AID504467 (National Center for Advancing Translational Sciences (NCATS), 2011).
About 7,700 (2.3%) of roughly 330,000 compounds were called active. This list was built around the results that the source calls inconclusive (neither active nor inactive); the mix of calls is not that of the screen. Calls come from the whole dose curve; as a rule, active = well fitted inhibition curve with a large enough effect; inconclusive = small, poorly fitted or top-dose-only effect, or effect the other way; inactive = flat fitted curve, though single readings scatter. A potency beside an inconclusive call is a rough fit, not a confirmed value.

test: qHTS screen for small molecules that inhibit ELG1-dependent DNA repair in human embryonic kidney (HEK293T) cells expressing luciferase-tagged ELG1; conditions: HEK293T ELG1-luciferase reporter, luminescence, 16 h, DNA damage induced by 5-fluorouridine; series mostly up to 46.1 µM; note: nearly all actives have a fitted effect of over 55% in size
Procedure, shortened: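 Cells (2,000 per well) received 5-fluorouridine plus test compound or DMSO and were incubated 16 hr at 37 °C, 5% CO2. Luciferase activity was read by luminescence 30 min after ONE-Glo addition; signal suppression marked inhibition of damage-induced ELG1 function.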
Potency is the fitted concentration of half-maximal effect.

SMILES	Potency
O=C(COC(=O)c1cc(=O)[nH]c(=O)[nH]1)Nc1cccc(S(=O)(=O)N2CCCCC2)c1	inconclusive: 14.6 µM [activator, partial curve, poor fit]
COC(=O)c1c(NC(=O)CN2C(=O)NC3(CCC(C)CC3)C2=O)sc2c1CCC2 (centres undefined)	inconclusive: 11.2 µM [inhibitor, partial curve, poor fit]
CC(=O)C(N=Nc1ccccc1)(Sc1nnc(-c2ccccc2)n1-c1ccccc1)C(C)=O	inactive
CCn1c(=O)c2c3c(sc2n2cnnc12)CCC3	inactive
COc1ccc(Cc2nnc(Cl)c3ccccc23)cc1OC	inconclusive: 16.4 µM [activator, single point]
N=c1n(CCO)c2ccccc2n1Cc1ccc(Cl)cc1	inconclusive: 9.2 µM [inhibitor, partial curve]
Cc1nn(C(=O)c2cccnc2)c(C)c1Sc1ccccc1	inconclusive: 4.61 µM [inhibitor, full curve, poor fit]
COc1ccc(C2Oc3ccccc3C3=C2C(c2cccs2)n2ncnc2N3)cc1 (centres undefined)	inconclusive: 7.31 µM [inhibitor, partial curve]
Clc1c(OCCCn2ccnc2)ccc2ccccc12	inconclusive: 1.26 µM [inhibitor, partial curve, poor fit]
Cc1cccc(NC(=O)CSc2nc3c(c(=O)[nH]2)CCC3)c1C	inconclusive: 29.1 µM [activator, partial curve, poor fit]
CCn1c(C)nnc1SCC(=O)Nc1ccc(N2CCOCC2)cc1	inconclusive: 32.6 µM [activator, partial curve, poor fit]
Cc1ccc(-n2cccn2)c(CN2CCCC(C(=O)c3ccc4c(c3)OCO4)C2)c1 (centres undefined)	inconclusive: 18.3 µM [inhibitor, single point]
Fc1ccc(CNc2ncnc3cc(Cl)ccc23)cc1	inconclusive: 29.1 µM [inhibitor, single point]
CCOC(=O)c1c(C)[nH]c(C)c1S(=O)(=O)N1CCN(C(=O)c2ccco2)CC1	inactive
COc1c(Cl)cc(Cl)cc1C(=O)Nc1ccc(C(=O)O)cc1	inactive
O=C(CSc1nc2cc(C(F)(F)F)ccc2n1Cc1ccccc1)NC1CCS(=O)(=O)C1 (centres undefined)	inactive
O=C(NN1CCCCC1)c1cccc(COc2ccc(Cl)cc2)c1	inconclusive: 16.4 µM [activator, partial curve]
Clc1ccc(-c2nc(Cc3ccccc3Cl)no2)cc1	inconclusive: 2.91 µM [activator, partial curve, poor fit]
O=C(Nc1ccc(-c2csnn2)cc1)C1CC1	inconclusive: 13 µM [activator, single point]
O=C(NC1=NCCS1)c1ccc(C(F)(F)F)cc1	inconclusive: 20.6 µM [activator, partial curve]
Cc1ccc(NC(=S)N(CCN(C)C)C(C)c2cccnc2)c(C)c1 (centres undefined)	inconclusive: 0.092 µM [activator, full curve]
CCOc1ccc2oc(C(=O)N3CCN(c4ccccc4OCC)CC3)c(C)c2c1	inconclusive: 29.1 µM [inhibitor, single point]

SMILES	Potency
COCCNS(=O)(=O)c1ccc2c(c1)C(=O)c1cc(S(=O)(=O)NCCOC)ccc1-2	inconclusive: 25.9 µM [inhibitor, partial curve, poor fit]
Cc1nc(N)sc1-c1csc(Nc2cccc(O)c2)n1	inactive
Cc1ccc([C@@H]2CC=C(C(=O)O)[C@H](c3ccccc3)N2S(=O)(=O)c2ccccc2C)cc1	inactive
O=C(Nc1ccc2c(c1)OCCO2)N1CCOCC1	inconclusive: 20.6 µM [activator, single point]
O=C(CCCc1nc(-c2ccccc2)no1)Nc1cccnc1	inconclusive: 25.9 µM [inhibitor, partial curve, poor fit]
Cc1cc2cccc(C)c2nc1SCC(=O)NNC(=O)c1ccco1	inconclusive: 18.3 µM [inhibitor, single point]
CC1(C2(O)CC(c3ccccc3)ON2)CCCCC1 (centres undefined)	inconclusive: 23.1 µM [activator, partial curve, poor fit]
N#CCCN(C(=O)CN1CCN(S(=O)(=O)c2ccc(Cl)s2)CC1)c1ccc(F)cc1	inactive
Cc1cc(C)c(S(=O)(=O)c2ccccc2)c(OC(=O)c2c(F)cccc2F)n1	inactive
CCOc1ccc(OCc2ccc(C(=O)NN=Cc3ccc[nH]3)cc2)cc1	inconclusive: 23.1 µM [activator, single point]
Cc1ccc(C)c(NC(=S)N2CCN(S(C)(=O)=O)CC2)c1	inactive
COc1ccc(CCNc2oc(Cc3ccccc3)nc2C#N)cc1OC	inconclusive: 29.1 µM [inhibitor, single point]
NC(=O)c1ccccc1N/C=C/C(=O)c1ccc(Cl)cc1	inconclusive: 1.64 µM [activator, partial curve]
CC(C)(C)c1ccc(OCCCC(=O)NNC(=O)c2ccccc2O)cc1	inactive
O=C(NCC(=O)N1CCN(S(=O)(=O)c2ccccc2C(F)(F)F)CC1)c1sc2ccccc2c1Cl	inactive
COc1ccc(C)cc1NC(=O)C(Sc1nnc(-c2ccncc2)n1-c1ccc(Cl)cc1)c1ccccc1 (centres undefined)	inconclusive: 29.1 µM [inhibitor, single point]
O=C(Cn1nnc(-c2ccccc2)n1)Nc1ccccc1N1CCOCC1	inconclusive: 23.1 µM [inhibitor, partial curve, poor fit]
Cc1ccc(C(=O)NC(=S)N2CCCCCC2)cc1	inconclusive: 16.4 µM [activator, partial curve, poor fit]
O=S(=O)(Nc1ccncc1Cl)c1cc(Cl)ccc1Cl	inconclusive: 29.1 µM [inhibitor, partial curve, poor fit]
CCN(C(=O)CSc1nccc(=O)[nH]1)C1CCCCC1	inactive
CN(C)c1ccc(NC(=O)CN2CCc3ccccc3C2)cc1	inconclusive: 18.3 µM [activator, partial curve]
c1ccc2c(c1)oc1c(Nc3ccc(CN4CCOCC4)cc3)ncnc12	inconclusive: 1.84 µM [activator, partial curve]

Part of the list above, set out differently.
SMILES | Potency
Cc1ccc(C(=O)NC(=S)N2CCCCCC2)cc1 | inconclusive: 16.4 µM [activator, partial curve, poor fit]
O=S(=O)(Nc1ccncc1Cl)c1cc(Cl)ccc1Cl | inconclusive: 29.1 µM [inhibitor, partial curve, poor fit]
CCN(C(=O)CSc1nccc(=O)[nH]1)C1CCCCC1 | inactive
CN(C)c1ccc(NC(=O)CN2CCc3ccccc3C2)cc1 | inconclusive: 18.3 µM [activator, partial curve]
